Library screen at single concentrations

By UniProt entry, the sequences of proteins in these tests, tags left out. Residues count along the entry.
UniProt Q8IDJ8, 1-583: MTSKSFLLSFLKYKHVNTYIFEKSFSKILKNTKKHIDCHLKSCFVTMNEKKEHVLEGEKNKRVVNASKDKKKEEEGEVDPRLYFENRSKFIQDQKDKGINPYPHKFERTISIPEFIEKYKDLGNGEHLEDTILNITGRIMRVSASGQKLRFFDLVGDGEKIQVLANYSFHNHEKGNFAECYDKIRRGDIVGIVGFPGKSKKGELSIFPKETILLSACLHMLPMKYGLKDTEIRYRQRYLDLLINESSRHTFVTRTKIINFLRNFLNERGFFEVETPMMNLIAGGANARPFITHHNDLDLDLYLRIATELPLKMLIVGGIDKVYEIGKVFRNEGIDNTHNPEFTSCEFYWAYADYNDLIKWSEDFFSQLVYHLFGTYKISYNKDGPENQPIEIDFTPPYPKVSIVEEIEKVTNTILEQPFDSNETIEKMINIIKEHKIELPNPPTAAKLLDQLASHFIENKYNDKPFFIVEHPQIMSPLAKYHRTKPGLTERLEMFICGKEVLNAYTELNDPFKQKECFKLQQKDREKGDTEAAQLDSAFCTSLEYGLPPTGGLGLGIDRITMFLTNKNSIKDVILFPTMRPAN
UniProt P9WPC5, whole entry: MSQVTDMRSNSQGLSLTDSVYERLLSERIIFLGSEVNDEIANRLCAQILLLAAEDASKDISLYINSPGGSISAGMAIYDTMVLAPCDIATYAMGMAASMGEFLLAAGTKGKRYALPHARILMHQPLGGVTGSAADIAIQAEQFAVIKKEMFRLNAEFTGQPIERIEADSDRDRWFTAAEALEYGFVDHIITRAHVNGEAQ
UniProt P9WPC3, whole entry partner: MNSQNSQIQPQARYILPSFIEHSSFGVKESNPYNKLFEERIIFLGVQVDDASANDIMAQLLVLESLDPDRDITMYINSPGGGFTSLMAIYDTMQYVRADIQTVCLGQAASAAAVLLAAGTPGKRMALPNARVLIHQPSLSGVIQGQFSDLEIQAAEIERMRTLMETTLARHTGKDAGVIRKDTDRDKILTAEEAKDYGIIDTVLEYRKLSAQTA

Measurements from “University of Dundee, Small-Polar-MMV Screening Library” (2021), ChEMBL document CHEMBL3988442.

PfKRS1: 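Lysine-tRNA ligase, Plasmodium falciparum 3D7 (UniProt Q8IDJ8). Enzyme assay of the cytosolic lysyl-tRNA synthetase in 384-well plates, read by luminescence. Concentration: 30 µM. Higher reads as stronger inhibition, judged from the few compounds that gave an IC50. Size under these conditions: about 69,000 compounds, about 49 of them at 50% or above in at least one test.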
ClpP1P2: 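ClpP1P2, Mycobacterium tuberculosis (UniProt P9WPC5 and UniProt P9WPC3). Protease assay of ClpP1P2, read by the AMC dye that it sets free. Concentration: 50 µM. Direction is inferred from only a few compounds that gave an IC50; most scored high, so higher reads as stronger inhibition. Most other retested compounds had strongly negative values. Size under these conditions: about 69,000 compounds, about 10 of them at 50% or above in at least one test.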

Results are given as percent effect. How 0% and 100% were set is not recorded. Most values in the screen are low, and negative values occur. This is an unselected part of the compounds tested.

With O=C(Cc1csc(-c2ccco2)n1)N1CCN(c2nccs2)CC1 the screen gave PfKRS1: -0.7871%; ClpP1P2: -3.912%.
With CN(Cc1ccsc1)C(=O)CN1CCCC1Cn1cccn1 (stereo not drawn) the screen gave PfKRS1: 4.586%; ClpP1P2: 1.384%.
With CCn1cc(NC(=O)NCC(c2cccs2)N(C)C)cn1 (stereo not drawn) the screen gave PfKRS1: 1.613%; ClpP1P2: 19.01%.
With CC(=O)N(Cc1ncc(C)o1)C1CCN(Cc2noc(C)n2)C1 (stereo not drawn) the screen gave PfKRS1: 5.083%; ClpP1P2: 12.31%.
With CCCn1[nH]cc/c1=N\C(=O)CN1CCOC(Cn2cc(C)cn2)C1 (stereo not drawn) the screen gave PfKRS1: 6.496%; ClpP1P2: 3.474%.
With O=C1OCCN1Cc1cccc(F)c1C(F)(F)F the screen gave PfKRS1: 4.813%; ClpP1P2: -3.567%.
With Cn1c(=O)ccn(CC(=O)Nc2cccnc2)c1=O the screen gave PfKRS1: 2.264%; ClpP1P2: 7.664%.
With CCOc1ccccc1CC(=O)N1C[C@@H](C(=O)O)[C@H](c2ccncc2)C1 the screen gave PfKRS1: -1.945%; ClpP1P2: 30.98%.
With O=C(N1CCCC1)C12CC(CN1Cc1nccs1)C2 the screen gave PfKRS1: 3.406%; ClpP1P2: -4.561%.
With O=S(=O)(c1ccc(F)cc1)N1CCN(CCCn2ccnc2)CC1 the screen gave PfKRS1: 5.684%; ClpP1P2: 1.297%.
With O=C(N1CCOCC1)[C@@]12CCO[C@@H]1CCN(Cc1ccccc1F)C2 the screen gave PfKRS1: -2.694%; ClpP1P2: -5.095%.
With CCN(CC)C(CNS(=O)(=O)NCc1ccccc1)c1ccco1 (stereo not drawn) the screen gave PfKRS1: 11.29%; ClpP1P2: -4.061%.
With Cc1nc(CN(C)C2CCN(CCc3ccc4c(c3)CCO4)C2)no1 (stereo not drawn) the screen gave PfKRS1: -0.7721%; ClpP1P2: -29.95%.
With CCn1ncc2c1CN(C(=O)c1cc(C)oc1C)CC2COC (stereo not drawn) the screen gave PfKRS1: 0.3777%; ClpP1P2: -3.553%.
With CC(=O)Nc1nc(C(=O)NCc2ccc(OC(C)C)nc2)cs1 the screen gave PfKRS1: -0.6929%; ClpP1P2: 6.412%.
With Cc1noc(C)c1CCC(=O)N1CCCCC1CNS(C)(=O)=O (stereo not drawn) the screen gave PfKRS1: 4.226%; ClpP1P2: -12.56%.
With CNC(=O)C1CCC2(CCNCC2)C1 (stereo not drawn) the screen gave PfKRS1: 4.91%; ClpP1P2: -7.273%.
With OCc1ccc(Cl)c(NCc2cccnc2)c1 the screen gave PfKRS1: -11.29%; ClpP1P2: -0.7799%.
With Cc1nn(C)c(N(C)C)c1CNC1CCc2cc(F)ccc21 (stereo not drawn) the screen gave PfKRS1: -0.5359%; ClpP1P2: -21.16%.
With COCCN1CCCC2(CCN(c3cc(C)c(C#N)c(C)n3)C2)C1=O (stereo not drawn) the screen gave PfKRS1: -2.075%; ClpP1P2: 7.098%.
With CCc1nnc(CN2CCN(c3cccc(OC)c3)C(=O)C2)o1 the screen gave PfKRS1: -4.803%; ClpP1P2: -1.433%.
With COc1cccc(CN2CCC3(COCc4cnc(N(C)C)nc43)C2)c1 (stereo not drawn) the screen gave PfKRS1: 8.991%; ClpP1P2: -5.938%.
With CC(C)NC(=O)NCc1ccnc(N(C)C)n1 the screen gave PfKRS1: 3.925%; ClpP1P2: 4.854%.
With Cc1cc(CN(C)C(=O)CC(C)C)no1 the screen gave PfKRS1: -0.2013%; ClpP1P2: 3.837%.
With Cc1ccc(-c2nc(CNCC3CN(C)CCO3)cs2)o1 (stereo not drawn) the screen gave PfKRS1: -3.09%; ClpP1P2: 10.5%.
With COc1ccc(CN2CC[C@@H](O)[C@@H]2Cc2ccccc2)cc1 the screen gave PfKRS1: -4.653%; ClpP1P2: 4.662%.
With Cc1ccc(N2C[C@H]3OCC[C@H]3[C@H](C(=O)NC3CCC3)C2)nn1 the screen gave PfKRS1: -2.392%; ClpP1P2: -1.464%.
With O=C1CN(C(=O)c2ccc(F)cc2)CC(O)CN1Cc1cccs1 (stereo not drawn) the screen gave PfKRS1: 6.547%; ClpP1P2: 4.254%.
With CCc1nc2n(n1)CC(NCc1nnc(C(C)C)o1)CC2 (stereo not drawn) the screen gave PfKRS1: -0.1482%; ClpP1P2: -3.555%.
With CC1CCN(Cc2ccccc2CNC(=O)C2CNC(=O)N2)CC1 (stereo not drawn) the screen gave PfKRS1: 0.04473%; ClpP1P2: -10.39%.
With O=C(NCC(=O)N1CCCC(n2cncn2)C1)OCc1ccccc1 (stereo not drawn) the screen gave PfKRS1: 0.981%; ClpP1P2: -36.14%.
With CN1CCC(N2CCCC(C(=O)N3Cc4ccccc4C3)C2)CC1 (stereo not drawn) the screen gave PfKRS1: 5.684%; ClpP1P2: -2.525%.
With Cc1nn(C(C)C)c(C)c1CN1CCN(C2CCCCC2)C(=O)C1 the screen gave PfKRS1: 2.423%; ClpP1P2: -5.653%.
With CC(=O)N[C@H]1CCO[C@@H](c2cccc(NC(=O)Cc3ccccc3)c2)C1 the screen gave PfKRS1: -1.166%; ClpP1P2: -33.24%.

Once more, the final 3:

{"compound": "CN1CCC(N2CCCC(C(=O)N3Cc4ccccc4C3)C2)CC1", "stereo": "stereo not drawn", "PfKRS1": 5.684, "ClpP1P2": -2.525}
{"compound": "Cc1nn(C(C)C)c(C)c1CN1CCN(C2CCCCC2)C(=O)C1", "PfKRS1": 2.423, "ClpP1P2": -5.653}
{"compound": "CC(=O)N[C@H]1CCO[C@@H](c2cccc(NC(=O)Cc3ccccc3)c2)C1", "PfKRS1": -1.166, "ClpP1P2": -33.24}